No constants are given. Whether binding was seen depends on the method and setting. Where a sequence is shown, tags or fusion partners need not be part of it.
T1: helicase domain of mda-5 as a GAL4 DNA-binding domain fusion (UniProt Q9BYX4)
T1 sequence: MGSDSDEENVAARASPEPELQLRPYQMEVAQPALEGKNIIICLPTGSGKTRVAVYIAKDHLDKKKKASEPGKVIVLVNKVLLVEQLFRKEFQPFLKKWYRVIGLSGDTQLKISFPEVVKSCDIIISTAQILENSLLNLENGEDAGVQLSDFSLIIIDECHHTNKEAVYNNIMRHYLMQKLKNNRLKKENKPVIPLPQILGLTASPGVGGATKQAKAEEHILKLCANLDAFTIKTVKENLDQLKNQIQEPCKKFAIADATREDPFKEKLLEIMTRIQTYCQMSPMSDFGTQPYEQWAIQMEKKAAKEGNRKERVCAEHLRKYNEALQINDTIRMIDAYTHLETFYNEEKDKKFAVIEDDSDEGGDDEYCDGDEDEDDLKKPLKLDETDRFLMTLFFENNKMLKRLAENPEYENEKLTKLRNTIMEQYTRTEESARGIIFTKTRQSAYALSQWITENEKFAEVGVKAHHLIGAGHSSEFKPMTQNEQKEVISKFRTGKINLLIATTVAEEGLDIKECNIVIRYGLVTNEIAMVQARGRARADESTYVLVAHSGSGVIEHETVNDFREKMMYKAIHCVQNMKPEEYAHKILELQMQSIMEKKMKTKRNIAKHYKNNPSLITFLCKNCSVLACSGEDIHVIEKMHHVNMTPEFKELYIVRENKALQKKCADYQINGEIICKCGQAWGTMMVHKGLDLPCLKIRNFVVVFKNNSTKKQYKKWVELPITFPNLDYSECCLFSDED


Target: T1, helicase domain of mda-5 as a GAL4 DNA-binding domain fusion
Assay: two-hybrid; S. cerevisiae PJ69-4α; GAL4 DBD and GAL4 AD fusions; growth on SD-L-W-H + 2 mM 3-AT, up to 6 days at 30°C

binding | Binder
no binding | LGP2(K634E) as a GAL4 activation domain fusion (protein, UniProt Q96C10 1-678) MELRSYQWEVIMPALEGKNIIIWLPTGAGKTRAAAYVAKRHLETVDGAKVVVLVNRVHLVTQHGEEFRRMLDGRWTVTTLSGDMGPRAGFGHLARCHDLLICTAELLQMALTSPEEEEHVELTVFSLIVVDECHHTHKDTVYNVIMSQYLELKLQRAQPLPQVLGLTASPGTGGASKLDGAINHVLQLCANLDTWCIMSPQNCCPQLQEHSQQPCKQYNLCHRRSQDPFGDLLKKLMDQIHDHLEMPELSRKFGTQMYEQQVVKLSEAAALAGLQEQRVYALHLRRYNDALLIHDTVRAVDALAALQDFYHREHVTKTQILCAERRLLALFDDRKNELAHLATHGPENPKLEMLEKILQRQFSSSNSPRGIIFTRTRQSAHSLLLWLQQQQGLQTVDIRAQLLIGAGNSSQSTHMTQRDQQEVIQKFQDGTLNLLVATSVAEEGLDIPHCNVVVRYGLLTNEISMVQARGRARADQSVYAFVATEGSRELKRELINEALETLMEQAVAAVQKMDQAEYQAKIRDLQQAALTKRAAQAAQRENQRQQFPVEHVQLLCINCMVAVGHGSDLRKVEGTHHVNVNPNFSNYYNVSRDPVVINKVFKDWKPGGVISCRNCGEVWGLQMIYKSVKLPVLEVRSMLLETPQGRIQAKKWSRVPFSVPDFDFLQHCAENLSDLSLD
no binding | LGP2 with helicase motif IV replaced with the equivalent sequence from RIG-I, two-hybrid fusion (protein, UniProt Q96C10 1-368; O95786 630-640; Q96C10 381-678) MELRSYQWEVIMPALEGKNIIIWLPTGAGKTRAAAYVAKRHLETVDGAKVVVLVNRVHLVTQHGEEFRRMLDGRWTVTTLSGDMGPRAGFGHLARCHDLLICTAELLQMALTSPEEEEHVELTVFSLIVVDECHHTHKDTVYNVIMSQYLELKLQRAQPLPQVLGLTASPGTGGASKLDGAINHVLQLCANLDTWCIMSPQNCCPQLQEHSQQPCKQYNLCHRRSQDPFGDLLKKLMDQIHDHLEMPELSRKFGTQMYEQQVVKLSEAAALAGLQEQRVYALHLRRYNDALLIHDTVRAVDALAALQDFYHREHVTKTQILCAERRLLALFDDRKNELAHLATHGPENPKLEMLEKILQRQFSSSNSPTILFVKTRALVHSLLLWLQQQQGLQTVDIRAQLLIGAGNSSQSTHMTQRDQQEVIQKFQDGTLNLLVATSVAEEGLDIPHCNVVVRYGLLTNEISMVQARGRARADQSVYAFVATEGSRELKRELINEALETLMEQAVAAVQKMDQAEYQAKIRDLQQAALTKRAAQAAQRENQRQQFPVEHVQLLCINCMVAVGHGSDLRKVEGTHHVNVNPNFSNYYNVSRDPVVINKVFKDWKPGGVISCRNCGEVWGLQMIYKSVKLPVLKVRSMLLETPQGRIQAKKWSRVPFSVPDFDFLQHCAENLSDLSLD
